These are yes or no findings as the source states them, for the method shown. In cells and extracts the contact can be indirect. Some results given as binding are weak or reduced against the parent protein; the word gives no strength. Where a sequence is shown, tags or fusion partners need not be part of it.
T1: eGFP-ARF16-PB1 (Oryza sativa) (UniProt A3B9A0)
T1 sequence: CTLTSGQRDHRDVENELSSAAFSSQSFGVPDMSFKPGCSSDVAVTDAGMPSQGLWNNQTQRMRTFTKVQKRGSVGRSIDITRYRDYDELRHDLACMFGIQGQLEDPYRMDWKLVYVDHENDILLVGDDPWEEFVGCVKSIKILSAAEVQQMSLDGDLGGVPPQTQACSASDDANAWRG

By UniProt entry, the sequences of proteins in these tests, tags left out.
UniProt P93830: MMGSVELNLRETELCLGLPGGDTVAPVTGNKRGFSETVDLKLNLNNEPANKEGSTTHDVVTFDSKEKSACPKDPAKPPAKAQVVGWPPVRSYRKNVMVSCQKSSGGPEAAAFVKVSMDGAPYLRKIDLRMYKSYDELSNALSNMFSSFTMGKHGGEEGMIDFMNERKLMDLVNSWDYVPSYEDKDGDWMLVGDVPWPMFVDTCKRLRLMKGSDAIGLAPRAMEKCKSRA


Assays:
[1] = molecular target: T1, eGFP-ARF16-PB1 (Oryza sativa); experiment: co-IP; anti-GFP antibody-conjugated magnetic beads precipitate eGFP-ARF16-PB1 (wild type or mutant) from lysate of transfected HEK293T cells without TIR1; blot for mCherry; lysis and wash buffer 50 mM Tris pH 7.5, 150 mM NaCl, 0.5% NP-40, 1 mM EDTA; 1.5 h at 4°C
NLS-mCherry-AID = NLS-mCherry-AID (UniProt P93830); experiment: co-IP; reciprocal: anti-mCherry-conjugated affinity gel precipitates mCherry-AID from lysate of HEK293T, HEK293T-eGFP-ARF16-PB1 and HEK293T-TIR1-eGFP-ARF16-PB1 cells; blots for GFP and TIR1; 50 mM Tris pH 7.5, 150 mM NaCl, 0.5% NP-40, 1 mM EDTA; 1.5 h at 4°C

binding [1] | binding (NLS-mCherry-AID) | Molecule
binds |  | NLS-mCherry-AID (from UniProt P93830 1-229)
 | binds | eGFP-ARF16-PB1 (domain or fragment, UniProt A3B9A0 878-1055) CTLTSGQRDHRDVENELSSAAFSSQSFGVPDMSFKPGCSSDVAVTDAGMPSQGLWNNQTQRMRTFTKVQKRGSVGRSIDITRYRDYDELRHDLACMFGIQGQLEDPYRMDWKLVYVDHENDILLVGDDPWEEFVGCVKSIKILSAAEVQQMSLDGDLGGVPPQTQACSASDDANAWRG

From PMC6771385
